The assay can be described thus: qHTS Assay to Find Inhibitors of Chronic Active B-Cell Receptor Signaling. The following applies: ABC-DLBCL IkBa-CBG/CBR reporter, luminescence ratio (green luciferase fused to IkBa over red control in TMD8 lymphoma cells), 4 h. An outline of the steps:
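Concentration-response series (up to 46 uM) were applied to TMD8 dual-reporter cells for 4 h at 37C with doxycycline. Green/red ratio, after filter-overlap correction, defined %Activity; red signal alone was normalised to basal cells and zero luminescence.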

The mark [1] stands for this setting: measured here: CBR red luminescence, cell number.
[2] abbreviates: measured here: IkBa-CBG green luminescence.

The other results are listed elsewhere or left out. Shown are side measurements of this screen, not its main read-out; they come without a call. Compounds called inactive in the main read-out are mostly missing here. Potencies come from curve fits of mixed quality, noted in brackets.

In the case of `CCN(CC)S(=O)(=O)c1ccc(NC2c3ccccc3C(=O)N2Cc2ccco2)cc1` (centres undefined), the AC50 under setting [1] was 35.5 µM [falling, single point].

Take `Cn1c(SCc2ccccc2F)nnc1-c1ccccn1`: the AC50 under setting [1] is 35.5 µM [falling, single point].

For `CCC(C)NC(=O)c1cc2c(=O)n3cccc(C)c3nc2s1` (centres undefined), the concentration at half-maximal activity (AC50) under setting [1] is 0.282 µM [rising, full curve, poor fit].

In the case of `FC(F)(F)c1cc(-c2cccs2)nc2ncnn12`, the AC50 under setting [1] was 3.98 µM [rising, full curve].

For the compound `Cc1ccnc(NC(=O)C2CCN(S(=O)(=O)c3ccc4c(c3)CC(C)N4C(=O)C3CCC3)CC2)c1` (centres undefined), the AC50 under setting [1] was 25.1 µM [falling, single point].

Turning to `COC(=O)c1cc(C(=O)N2CCN(c3cccc(Cl)c3)CC2)cc([N+](=O)[O-])c1`, the AC50 is 10 µM [rising, partial curve] under setting [1] and 11.2 µM [falling, partial curve] under setting [2].

Take `COC(=O)Nc1nc(C)c(C(=O)c2ccccc2)s1`: the concentration at half-maximal activity (AC50) under setting [1] is 5.8 µM [falling, single point].

For `CCCCn1c(O)c(/C=C/C=C/C=Nc2ccccc2)sc1=S`, the AC50 under setting [1] is 12.6 µM [falling, partial curve, poor fit].

With `O=C1OCCN1C(=O)[C@H]1[C@H](c2ccc(Cl)cc2)C(c2ccc(F)cc2)=NN1c1ccc(Br)cc1`, the AC50 under setting [1] was 6.51 µM [rising, full curve].

`Cc1ccc(S(=O)(=O)N(C)C)cc1NC(=O)COC(=O)/C(=C/c1ccc(F)cc1)c1cccs1`: under setting [1], the AC50 was 29.1 µM [falling, single point].

With `C/C(=N\NC(=O)c1c(Br)c(C)nn1C)c1cccc(NC(=O)C2CCC2)c1`, the AC50 under setting [1] is 5.01 µM [falling, partial curve].

In the case of `COc1ccc(C2=Nn3c(nnc3-c3ccccc3F)SC2)cc1OC1CCCC1`, the AC50 under setting [2] was 16.4 µM [falling, partial curve, poor fit].

Take `COc1ccc(/C=N/NC(=O)c2cc(=O)[nH]c3ccccc23)cc1OC`: under setting [1], the AC50 is 12.6 µM [rising, single point].

Turning to `O=C1C(=O)N(CNc2ccccn2)c2ccccc21`, the AC50 under setting [1] is 12.6 µM [rising, single point].

Consider `CCOC(=O)c1c(NC(=S)NC)sc2c1CCCC2`, for which the AC50 under setting [1] was 0.631 µM [falling, full curve, poor fit].

On to `CCC1CCC2(CC1)NC(=O)N(CC(=O)Nc1cccc(S(=O)(=O)N(C)c3ccccc3)c1)C2=O` (centres undefined), for which the AC50 under setting [1] was 18.4 µM [falling, single point].

`Cc1cnn(C(=S)NCc2ccc(Cl)cc2)c1`: the AC50 under setting [1] was 29.1 µM [falling, single point].

Consider `NC(=S)N/N=C/c1c[nH]c2ccc(OCc3ccccc3)cc12`, for which the AC50 under setting [1] is 6.31 µM [falling, partial curve].

For `O=C(CSc1nnc2ccccn12)Nc1ccc2c(c1)OCCO2`, the AC50 under setting [1] was 3.55 µM [falling, single point].

`Cc1c([N+](=O)[O-])c(N)nn1C`: the AC50 under setting [1] is 14.1 µM [rising, partial curve, poor fit].

Take `O=S(=O)(Cc1nc2ccccc2s1)c1ccccc1`: the AC50 under setting [1] was 5.8 µM [falling, single point].

As for `Cc1ccc(Nc2c(-c3ccccn3)nc3cccc(C)n23)cc1`, the AC50 under setting [1] is 35.5 µM [falling, single point].

Regarding `CC[N+](CC)(CC=C(C)C)CC(=O)OC`, under setting [1], the AC50 is 11.2 µM [rising, partial curve].

On to `COc1cc(S(=O)(=O)n2ccc(C)n2)c(OC)cc1Cl`, for which the AC50 under setting [1] was 7.31 µM [rising, partial curve, poor fit].

`Nc1ccccc1C(=O)Nc1nccs1`: the AC50 under setting [2] was 3.98 µM [rising, full curve, poor fit].

Regarding `O=C(CSc1ncnc2c1nnn2Cc1ccccc1)NC1CCCC1`, the AC50 under setting [1] was 2.24 µM [falling, partial curve, poor fit].

For `COc1cc2c(cc1OC)-c1cc(NC3CCCC3)nc(=O)n1CC2`, the AC50 under setting [2] is 12.6 µM [falling, partial curve, poor fit].

As for `O=C(NCc1cc2ccccc2[nH]1)c1ccccc1F`, the AC50 under setting [1] is 12.6 µM [falling, partial curve].

For the compound `O=C(CCc1ccccc1)N/N=C/c1cc(Br)ccc1O`, under setting [1], the AC50 was 2.91 µM [rising, full curve, poor fit].

Consider `Cc1cc(C)c2c(c1)/C(=N/NC(=O)c1cc(C)oc1C)CCC2`, for which the AC50 under setting [1] is 2.06 µM [falling, partial curve].

Regarding `COCC(C)NC(=O)c1cc(-c2cccc(OC)c2)on1` (centres undefined), the AC50 under setting [1] was 4.47 µM [falling, partial curve] and the AC50 under setting [2] is 31.6 µM [rising, partial curve, poor fit].

For `Cc1ccc(NC(=O)C(=O)Nc2ccc(C)cn2)nc1`, the AC50 under setting [1] is 0.794 µM [falling, full curve].

Consider `CC1=NN(C(=O)c2ccco2)C(O)(c2ccccc2)C1` (centres undefined), for which the AC50 under setting [1] was 31.6 µM [falling, single point].

For the compound `CCC1=C(OC(=O)N(CC)CC)N2C(=O)OC(=NCC3CC3)[C@]2(Cc2ccccc2)[C@H]2C1=CC[C@H]1C(=O)N(c3ccccc3)C(=O)[C@H]12`, the AC50 under setting [1] was 35.5 µM [falling, single point].

With `CC(=O)N1N=C2/C(=C/c3ccccc3)CCCC2C1c1ccccc1` (centres undefined), under setting [1], the AC50 is 15.8 µM [rising, single point].

For `CCOC(=O)CN1C(=O)S/C(=C\c2ccc3c(c2)OCO3)C1=O`, under setting [1], the concentration at half-maximal activity (AC50) was 11.2 µM [rising, single point].

Turning to `O=C(NCCc1ccccc1)c1cnc(Cl)c(Cl)c1`, the AC50 is 28.2 µM [falling, single point] under setting [1] and 14.1 µM [rising, single point] under setting [2].

As to `COCC(=O)Nc1ccc(S(=O)(=O)Nc2ncccn2)cc1`, the AC50 under setting [1] is 6.51 µM [rising, single point].

As for `Clc1ccc(C2=Nn3c(nnc3-c3cc(-c4ccccc4)n[nH]3)SC2)cc1`, the AC50 under setting [2] is 2.06 µM [falling, full curve].

Take `COc1cc2c(cc1NC(=O)c1cncc(Br)c1)oc1ccccc12`: the half-maximal activity concentration (AC50) under setting [1] is 0.0231 µM [rising, full curve, poor fit].

`O=c1[nH]c(-c2cccs2)nc2ccccc12`: the AC50 under setting [1] was 5.8 µM [rising, single point].

Source of the values: PubChem BioAssay AID493014 (National Center for Advancing Translational Sciences (NCATS), 2011).
